Results deposited as PubChem BioAssay AID1053208 (Peter MacCallum Cancer Centre, 2014).
Screen: 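Find knock-downs that sensitise mouse osteosarcoma cells to doxorubicin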 (primary screen). Cell system: mouse osteosarcoma cells, early-passage culture from an engineered mouse model of fibroblastic bone tumour. Reagents: siRNA pool against mouse genes, 40 nM. Timing: about 120 h (48 h before drug, then 72 h with drug). Conditions: doxorubicin 100 nM for 72 h, roughly 30-40% inhibitory dose. Detection: 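Viability read as ATP luminescence after 72 h of 100 nM doxorubicin or none, duplicate wells averaged, scaled to non-targeting siRNA, then expressed as robust z-scores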. Scale: viability z-score with doxorubicin: higher = more viable cells under doxorubicin; viability z-score without drug: higher = more viable cells with knock-down alone. Hit rule: 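a pool counts as active when its viability z-score with doxorubicin is -2 or below and its z-score without drug lies between -2 and 2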.
The deposit covers about 17,000 reagents; shown is an unselected part. Of all reagents, 788 (4.7%) got an active call. 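Calls rest on z-score classes alone; an extra cut-off of viability at most 70% of control was not applied to them.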 A number with no mark means an inactive call. Further read-outs or replicates are left out here.

target gene,combined z-score class,viability z-score with doxorubicin,viability z-score without drug
Usp13 (ubiquitin specific peptidase 13 (isopeptidase T-3)),no change with or without drug,-0.9,-0.51
"Kcnk4 (potassium channel, subfamily K, member 4)",no change with or without drug,0.22,-1.52
Ndufaf1 (NADH:ubiquinone oxidoreductase complex assembly factor 1),no change with or without drug,-1.35,-0.84
Dis3l (DIS3 like exosome 3'-5' exoribonuclease),no change with or without drug,-0.22,-1.01
Or10g1 (olfactory receptor family 10 subfamily G member 1),no change with or without drug,0.34,-0.51
Bcor (BCL6 interacting corepressor),no change with or without drug,0.45,-0.17
Cfap97 (cilia and flagella associated protein 97),no change with or without drug,1.69,1.52
Bcl7c (B cell CLL/lymphoma 7C),no change with or without drug,0.9,-0.17
Dot1l (DOT1 like histone lysine methyltransferase),high cell count without drug only,1.46,2.36
Tma16 (translation machinery associated 16),no change with or without drug,1.69,0.17
Cdk8 (cyclin dependent kinase 8),low cell count without drug only,-0.45,-2.19
Cntnap2 (contactin associated protein-like 2),no change with or without drug,0,0.67
Hcn1,no change with or without drug,-0.79,0.34
B830004H01Rik (RIKEN cDNA B830004H01 gene),no change with or without drug,0.79,0
Terf1 (telomeric repeat binding factor 1),no change with or without drug,0.11,1.52
B230220N19Rik (RIKEN cDNA B230220N19 gene),no change with or without drug,0.67,-0.84
Tspo2 (translocator protein 2),no change with or without drug,1.35,1.18
Gap43 (growth associated protein 43),no change with or without drug,-1.24,-1.85
Micall2 (MICAL-like 2),no change with or without drug,-0.22,-0.17
Prss43 (serine protease 43),no change with or without drug,-0.45,-0.51
4933411G06Rik (RIKEN cDNA 4933411G06 gene),high cell count with doxorubicin only,2.59,0.84
Slk (STE20-like kinase),no change with or without drug,-1.57,-0.67
Or52h1 (olfactory receptor family 52 subfamily H member 1),no change with or without drug,0,0.67
"Pigb (phosphatidylinositol glycan anchor biosynthesis, class B)",no change with or without drug,0,1.35
"Dnah8 (dynein, axonemal, heavy chain 8)",no change with or without drug,-0.45,1.52
Kif3c (kinesin family member 3C),no change with or without drug,-0.67,0
"Vmn1r190-ps (vomeronasal 1 receptor 190, pseudogene)",low cell count with doxorubicin only (active),-2.14,-0.17
Tlr4 (toll-like receptor 4),no change with or without drug,-1.01,-0.51
1700128F08Rik (RIKEN cDNA 1700128F08 gene),no change with or without drug,0.45,1.35
Emilin3 (elastin microfibril interfacer 3),no change with or without drug,0,1.85
Cxcl17 (C-X-C motif chemokine ligand 17),no change with or without drug,0,1.18
"Ftl2-ps (ferritin light polypeptide 2, pseudogene)",no change with or without drug,0.11,0.51
Hip1 (huntingtin interacting protein 1),no change with or without drug,0.67,1.85
"Zmat1 (zinc finger, matrin type 1)",no change with or without drug,0.45,0.34

Next part; the last 4 above are carried over.
target gene,combined z-score class,viability z-score with doxorubicin,viability z-score without drug
Cxcl17 (C-X-C motif chemokine ligand 17),no change with or without drug,0,1.18
"Ftl2-ps (ferritin light polypeptide 2, pseudogene)",no change with or without drug,0.11,0.51
Hip1 (huntingtin interacting protein 1),no change with or without drug,0.67,1.85
"Zmat1 (zinc finger, matrin type 1)",no change with or without drug,0.45,0.34
Cep55 (centrosomal protein 55),low cell count with doxorubicin only (active),-2.92,-1.35
"Snta1 (syntrophin, acidic 1)",no change with or without drug,0.11,-0.51
Hoxa6 (homeobox A6),no change with or without drug,0.22,0.17
Tmco4 (transmembrane and coiled-coil domains 4),no change with or without drug,0.9,0.34
Plxnc1 (plexin C1),no change with or without drug,0.45,-0.51
"Gjb2 (gap junction protein, beta 2)",no change with or without drug,-0.22,-0.51
Or56a4 (olfactory receptor family 56 subfamily A member 4),no change with or without drug,0.45,-0.84
Or4d11 (olfactory receptor family 4 subfamily D member 11),no change with or without drug,-0.67,-0.51
Or4a66 (olfactory receptor family 4 subfamily A member 66),no change with or without drug,0,0.84
Krtap6-1 (keratin associated protein 6-1),no change with or without drug,-1.35,0.17
Srr (serine racemase),no change with or without drug,1.12,0.34
Rrp12 (ribosomal RNA processing 12 homolog),no change with or without drug,0,-0.84
Tmem80 (transmembrane protein 80),no change with or without drug,0.9,-0.17
"Celsr2 (cadherin, EGF LAG seven-pass G-type receptor 2)",no change with or without drug,-0.45,-1.18
A530079E22Rik (RIKEN cDNA A530079E22 gene),no change with or without drug,0.22,-0.17
"Fam241a (family with sequence similarity 241, member A)",no change with or without drug,0.45,0.67
Mmrn2 (multimerin 2),low cell count with doxorubicin only (active),-2.02,-1.69
Fam243 (family with sequence similarity 243),no change with or without drug,-0.67,1.52
Cep170 (centrosomal protein 170),no change with or without drug,1.12,-0.84
Fsd1l (fibronectin type III and SPRY domain containing 1-like),no change with or without drug,0.22,1.52
Chml (choroideremia-like),no change with or without drug,-0.34,1.01
Or13e8 (olfactory receptor family 13 subfamily E member 8),no change with or without drug,-1.35,-0.84
Dbil5 (diazepam binding inhibitor-like 5),no change with or without drug,1.46,1.69
Ddhd1 (DDHD domain containing 1),no change with or without drug,-1.8,0.34
Ube2m (ubiquitin-conjugating enzyme E2M),no change with or without drug,0.34,-0.67
Arhgef3 (Rho guanine nucleotide exchange factor 3),no change with or without drug,-0.45,1.01
Ppp1ca (protein phosphatase 1 catalytic subunit alpha),no change with or without drug,-1.57,-1.52
Bclaf1 (BCL2-associated transcription factor 1),no change with or without drug,1.01,-0.84
Isy1 (spliceosome associated protein),low cell count with and without drug,-5.4,-5.9
